Assay results as given in patent US5972639A, “Fluorescence-based assays for measuring cell proliferation” (Irori, priority 1997, dated 1999).

Columns and labels:
[1] = test system: HUVEC intracellular acid phosphatase; type: biochemical, human
[2] = test system: HDMEC intracellular acid phosphatase; assay: acid phosphatase assay of HDMEC with AttoPhos/BBTP; type: biochemical, human; conditions: for S/N (signal-to-noise ratio): A/2 plate
Description: (§1) To establish a relation between acid phosphatase activity and cell numbers, cells were seeded at various densities (50-20,000) onto replicate plastic 96-well plates or half area 96-well microtiter plates (Costar) and incubated at 37° C. for 3.5 hours to allow attachment. Cell number was then assessed by measuring intracellular acid phosphatase with three different substrates: p-nitrophenyl phosphate, which has a calorimetric endpoint, 4-methylumbelliferyl phosphate (MUP) and 2'-[2-benzthiazoyl]-6'-hydoxybenzothiazole phosphate bis-[2-amino-2-methyl-13-propanediol] salt (AttoPhos™), which have fluorometric endpoints.
(§2) Plates were incubated for 1 hour at room temperature and the reaction was terminated with 50 μL of stop solution (240 mM diethanolamine, pH 10). Fluorescence was measured at excitation wavelength of 450 nm and emission wavelength of 580 nm using a fluorimeter (Cytofluor 4000, PerSeptive Biosystems). Nonenzymatic hydrolysis was determined in wells containing no cells and subtracted from the experimental values. Since the background is subtracted, in general, the actual signal to noise ratios at lower cell numbers is better than what presented in the table.

[3] = test system: CHO-K1 acid phosphatase; assay: acid phosphatase assay of CHO-K1 with AttoPhos/BBTP; type: biochemical, Chinese hamster; conditions: A/2 plate
Description: as §1, §2

O=P(O)(O)Oc1ccc2nc(-c3nc4ccccc4s3)sc2c1 [BBTP, 2'(2-benzothiazoyl)-6'-hydroxy-benzthiazole phosphate]
S/N (signal-to-noise ratio) ([1]; 625 HUVEC/well, 96-well plate, AttoPhos 250 μM): 20 | S/N (signal-to-noise ratio) ([1]; 625 HUVEC/well, 96-well plate, AttoPhos 500 μM): 20 | S/N (signal-to-noise ratio) ([1]; 625 HUVEC/well, half area 96-well (A/2) plate, AttoPhos 250 μM): 3.4 | S/N (signal-to-noise ratio) ([1]; 625 HUVEC/well, half area 96-well (A/2) plate, AttoPhos 500 μM): 3.4 | S/N (signal-to-noise ratio) ([1]; 1,250 HUVEC/well, 96-well plate, AttoPhos 250 μM): 34 | S/N (signal-to-noise ratio) ([1]; 1,250 HUVEC/well, 96-well plate, AttoPhos 500 μM): 35 | S/N (signal-to-noise ratio) ([1]; 1,250 HUVEC/well, half area 96-well (A/2) plate, AttoPhos 250 μM): 6.3 | S/N (signal-to-noise ratio) ([1]; 1,250 HUVEC/well, half area 96-well (A/2) plate, AttoPhos 500 μM): 6.2 | S/N (signal-to-noise ratio) ([1]; 2,500 HUVEC/well, 96-well plate, AttoPhos 250 μM): 60 | S/N (signal-to-noise ratio) ([1]; 2,500 HUVEC/well, 96-well plate, AttoPhos 500 μM): 66 | S/N (signal-to-noise ratio) ([1]; 2,500 HUVEC/well, half area 96-well (A/2) plate, AttoPhos 250 μM): 12.1 | S/N (signal-to-noise ratio) ([1]; 2,500 HUVEC/well, half area 96-well (A/2) plate, AttoPhos 500 μM): 11.6 | S/N (signal-to-noise ratio) ([1]; 5,000 HUVEC/well, 96-well plate, AttoPhos 250 μM): 127 | S/N (signal-to-noise ratio) ([1]; 5,000 HUVEC/well, 96-well plate, AttoPhos 500 μM): 133 | S/N (signal-to-noise ratio) ([1]; 5,000 HUVEC/well, half area 96-well (A/2) plate, AttoPhos 250 μM): 23.4 | S/N (signal-to-noise ratio) ([1]; 5,000 HUVEC/well, half area 96-well (A/2) plate, AttoPhos 500 μM): 24 | S/N (signal-to-noise ratio) ([1]; 10,000 HUVEC/well, 96-well plate, AttoPhos 250 μM): 249 | S/N (signal-to-noise ratio) ([1]; 10,000 HUVEC/well, 96-well plate, AttoPhos 500 μM): 272 | S/N (signal-to-noise ratio) ([1]; 10,000 HUVEC/well, half area 96-well (A/2) plate, AttoPhos 250 μM): 46.9 | S/N (signal-to-noise ratio) ([1]; 10,000 HUVEC/well, half area 96-well (A/2) plate, AttoPhos 500 μM): 46.7 | S/N (signal-to-noise ratio) ([1]; 20,000 HUVEC/well, 96-well plate, AttoPhos 250 μM): 456 | S/N (signal-to-noise ratio) ([1]; 20,000 HUVEC/well, 96-well plate, AttoPhos 500 μM): 494 | S/N (signal-to-noise ratio) ([1]; 20,000 HUVEC/well, half area 96-well (A/2) plate, AttoPhos 250 μM): 84.7 | S/N (signal-to-noise ratio) ([1]; 20,000 HUVEC/well, half area 96-well (A/2) plate, AttoPhos 500 μM): 82 | S/N (signal-to-noise ratio) ([2]; 50 HDMEC/well, AttoPhos 100 μM): 4.8 | S/N (signal-to-noise ratio) ([2]; 50 HDMEC/well, AttoPhos 250 μM): 9.1 | S/N (signal-to-noise ratio) ([2]; 50 HDMEC/well, AttoPhos 500 μM): 9.3 | S/N (signal-to-noise ratio) ([2]; 100 HDMEC/well, AttoPhos 100 μM): 9.4 | S/N (signal-to-noise ratio) ([2]; 100 HDMEC/well, AttoPhos 250 μM): 13.8 | S/N (signal-to-noise ratio) ([2]; 100 HDMEC/well, AttoPhos 500 μM): 12.6 | S/N (signal-to-noise ratio) ([2]; 250 HDMEC/well, AttoPhos 100 μM): 13.7 | S/N (signal-to-noise ratio) ([2]; 250 HDMEC/well, AttoPhos 250 μM): 21.2 | S/N (signal-to-noise ratio) ([2]; 250 HDMEC/well, AttoPhos 500 μM): 22.8 | S/N (signal-to-noise ratio) ([2]; 500 HDMEC/well, AttoPhos 100 μM): 21.5 | S/N (signal-to-noise ratio) ([2]; 500 HDMEC/well, AttoPhos 250 μM): 35.7 | S/N (signal-to-noise ratio) ([2]; 500 HDMEC/well, AttoPhos 500 μM): 39.6 | S/N (signal-to-noise ratio) ([2]; 1,000 HDMEC/well, AttoPhos 100 μM): 38.8 | S/N (signal-to-noise ratio) ([2]; 1,000 HDMEC/well, AttoPhos 250 μM): 67.8 | S/N (signal-to-noise ratio) ([2]; 1,000 HDMEC/well, AttoPhos 500 μM): 60.8 | S/N (signal-to-noise ratio) ([2]; 2,500 HDMEC/well, AttoPhos 100 μM): 90.9 | S/N (signal-to-noise ratio) ([2]; 2,500 HDMEC/well, AttoPhos 250 μM): 119.5 | S/N (signal-to-noise ratio) ([2]; 2,500 HDMEC/well, AttoPhos 500 μM): 127 | S/N (signal-to-noise ratio) ([2]; 5,000 HDMEC/well, AttoPhos 100 μM): 163.5 | S/N (signal-to-noise ratio) ([2]; 5,000 HDMEC/well, AttoPhos 250 μM): 227.4 | S/N (signal-to-noise ratio) ([2]; 5,000 HDMEC/well, AttoPhos 500 μM): 211 | S/N (signal-to-noise ratio) ([2]; 10,000 HDMEC/well, AttoPhos 100 μM): 208.9 | S/N (signal-to-noise ratio) ([2]; 10,000 HDMEC/well, AttoPhos 250 μM): 363.6 | S/N (signal-to-noise ratio) ([2]; 10,000 HDMEC/well, AttoPhos 500 μM): 336.7 | range in which linearity was maintained ([2]; HDMEC, half area 96-well (A/2) plate (Table 5)): 50-10,000 cells per well | optimum pH for the reaction ([2]; human dermal microvascular endothelial cells): ~6.5 | S/N (signal-to-noise ratio) ([3]; 250 CHO-K1/well, AttoPhos 100 μM): 6 | S/N (signal-to-noise ratio) ([3]; 250 CHO-K1/well, AttoPhos 250 μM): 5.9 | S/N (signal-to-noise ratio) ([3]; 250 CHO-K1/well, AttoPhos 500 μM): 4.9 | S/N (signal-to-noise ratio) ([3]; 500 CHO-K1/well, AttoPhos 100 μM): 9 | S/N (signal-to-noise ratio) ([3]; 500 CHO-K1/well, AttoPhos 250 μM): 8.7 | S/N (signal-to-noise ratio) ([3]; 500 CHO-K1/well, AttoPhos 500 μM): 6.9 | S/N (signal-to-noise ratio) ([3]; 1,000 CHO-K1/well, AttoPhos 100 μM): 12.3 | S/N (signal-to-noise ratio) ([3]; 1,000 CHO-K1/well, AttoPhos 250 μM): 11.2 | S/N (signal-to-noise ratio) ([3]; 1,000 CHO-K1/well, AttoPhos 500 μM): 9.5 | S/N (signal-to-noise ratio) ([3]; 2,000 CHO-K1/well, AttoPhos 100 μM): 23.7 | S/N (signal-to-noise ratio) ([3]; 2,000 CHO-K1/well, AttoPhos 250 μM): 22.7 | S/N (signal-to-noise ratio) ([3]; 2,000 CHO-K1/well, AttoPhos 500 μM): 20 | S/N (signal-to-noise ratio) ([3]; 4,000 CHO-K1/well, AttoPhos 100 μM): 42.4 | S/N (signal-to-noise ratio) ([3]; 4,000 CHO-K1/well, AttoPhos 250 μM): 35.9 | S/N (signal-to-noise ratio) ([3]; 4,000 CHO-K1/well, AttoPhos 500 μM): 32.9 | S/N (signal-to-noise ratio) ([3]; 8,000 CHO-K1/well, AttoPhos 100 μM): 84.6 | S/N (signal-to-noise ratio) ([3]; 8,000 CHO-K1/well, AttoPhos 250 μM): 72 | S/N (signal-to-noise ratio) ([3]; 8,000 CHO-K1/well, AttoPhos 500 μM): 62.2 | S/N (signal-to-noise ratio) ([3]; 12,000 CHO-K1/well, AttoPhos 100 μM): 136 | S/N (signal-to-noise ratio) ([3]; 12,000 CHO-K1/well, AttoPhos 250 μM): 111.7 | S/N (signal-to-noise ratio) ([3]; 12,000 CHO-K1/well, AttoPhos 500 μM): 83

Where two headings read alike, the source gives them in different places.
